Test results from the supplement of paper PMC4604168 (melanoma cell lines).
This is one part of the list. Many values rest on one well or one pass, so single values are uncertain.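 Cells were imaged in 1,536-well plates, and nuclei stained with an antibody against cleaved PARP were counted against all DNA-stained nuclei to give the apoptosis fraction. Screening doses were chosen to leave most cells alive, and resting and induced cleaved-PARP levels differ strongly between cell lines.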

What was measured:
Experiment in all cases: cleaved PARP positive nuclei fraction relative to DMSO control; melanoma cells; higher = more apoptosis
Conditions in all cases: library dose: low library concentration; 72 h
[1] = system: MZ2-MEL
[2] = system: MeWo
[3] = system: RPMI7951
[4] = system: RVH-421
[5] = system: SkMel28
[6] = system: SkMel2
[7] = system: SkMel30
[8] = system: UACC62
[9] = system: WM115
[10] = system: WM1716
[11] = system: WM1745
[12] = system: WM3526
[13] = system: WM3619
[14] = system: WM451Lu

| Structure (SMILES) | cleaved PARP positive nuclei fraction [1] [%] | cleaved PARP positive nuclei fraction [2] [%] | cleaved PARP positive nuclei fraction [3] [%] | cleaved PARP positive nuclei fraction [4] [%] | cleaved PARP positive nuclei fraction [5] [%] | cleaved PARP positive nuclei fraction [6] [%] | cleaved PARP positive nuclei fraction [7] [%] | cleaved PARP positive nuclei fraction [8] [%] | cleaved PARP positive nuclei fraction [9] [%] | cleaved PARP positive nuclei fraction [10] [%] | cleaved PARP positive nuclei fraction [11] [%] | cleaved PARP positive nuclei fraction [12] [%] | cleaved PARP positive nuclei fraction [13] [%] | cleaved PARP positive nuclei fraction [14] [%] |
| --- | --- | --- | --- | --- | --- | --- | --- | --- | --- | --- | --- | --- | --- | --- |
| O=c1[nH]nc(Sc2ncc([N+](=O)[O-])s2)n1-c1ccc2c(c1)OCCO2 + Cc1ccc(Nc2nccc(N(C)c3ccc4c(C)n(C)nc4c3)n2)cc1S(N)(=O)=O [Pazopanib] (first compound 0.2 µM, partner dose 0.4 µM) | 41.9 | 16.7 | 169 | 34 | 73.3 | 19.2 | 50.4 | 146 | 79.5 | 111 | 97.9 | 166 | 106 | 94.3 |
| Cc1ccc(Nc2nccc(N(C)c3ccc4c(C)n(C)nc4c3)n2)cc1S(N)(=O)=O [Pazopanib] + COc1ccc(C2=N[C@@H](c3ccc(Cl)cc3)[C@@H](c3ccc(Cl)cc3)N2C(=O)N2CCNC(=O)C2)c(OC(C)C)c1 [Nutlin-3] (first compound 0.4 µM, partner dose 0.1 µM) | 113 | 63.7 | 124 | 90.1 | 80 | 29.2 | 50.8 | 100 | 64.3 | 169 | 106 | 36.6 | 112 | 33.8 |
| Cc1ccc(Nc2nccc(N(C)c3ccc4c(C)n(C)nc4c3)n2)cc1S(N)(=O)=O [Pazopanib] + C[C@@H](N)c1ccc(C(=O)Nc2ccnc3[nH]ccc23)cc1 [RKI983] (first compound 0.4 µM, partner dose 0.4 µM) | 117 | 139 | 58.4 | 174 | 129 | 75.3 | 57.6 | 84.2 | 115 | 136 | 83.9 | 19.8 | 86.2 | 83.9 |
| O=C(/C=C/c1cccnc1)NCCCCC1CCN(C(=O)c2ccccc2)CC1 + O=C(O)[C@@H]1[O][Sb](=[O])([O][Sb]2(=[O])[O][C@H]([C@H](O)CO)[C@H](O)[C@H](C(=O)O)[O]2)[O][C@H]([C@H](O)CO)[C@@H]1O [stibogluconate] (first compound 0.01 µM, partner dose 2 µM) | 538 | 56.6 | 123 | 101 | 79.4 | 2130 | 11.7 | 141 | 103 | 32 | 80.5 | 24.5 | 83.8 | 166 |
| Cc1cc(Nc2cc(N3CCN(C)CC3)nc(Sc3ccc(NC(=O)C4CC4)cc3)n2)n[nH]1 [Tozasertib] + Cc1nc(Nc2ncc(C(=O)Nc3c(C)cccc3Cl)s2)cc(N2CCN(CCO)CC2)n1 [dasatanib] (first compound 0.006 µM, partner dose 0.004 µM) | 86 | 43.3 | 122 | 304 | 97.4 | 84.1 | 63.3 | 122 | 107 | 44.4 | 165 | 54.2 | 118 | 136 |
| O=C(/C=C/c1cccnc1)NCCCCC1CCN(C(=O)c2ccccc2)CC1 + Cn1cnc2c(F)c(Nc3ccc(Br)cc3Cl)c(C(=O)NOCCO)cc21 [selumetinib] (first compound 0.01 µM, partner dose 0.015 µM) | 192 | 178 | 53.2 | 371 | 188 | 713 | 95.8 | 131 | 73.1 | 74.4 | 102 | 44.2 | 110 | 59.3 |
| Cc1cc(Nc2cc(N3CCN(C)CC3)nc(Sc3ccc(NC(=O)C4CC4)cc3)n2)n[nH]1 [Tozasertib] + CS(=O)(=O)c1ccc(C(=O)Nc2ccc(Cl)c(-c3ccccn3)c2)c(Cl)c1 [vismodegib] (first compound 0.006 µM, partner dose 1 µM) | 64.6 | 69.7 | 94.7 | 26.7 | 85.1 | 43.2 | 62 | 188 | 164 | 66.3 | 116 | 56.9 | 92.7 | 55.5 |
| COc1cc([C@@H]2c3cc4c(cc3[C@@H](O[C@@H]3O[C@@H]5CO[C@@H](C)O[C@H]5[C@H](O)[C@H]3O)[C@H]3COC(=O)[C@H]23)OCO4)cc(OC)c1O [etoposide] + Cn1c(Nc2ccc(C(F)(F)F)cc2)nc2cc(Oc3ccnc(-c4ncc(C(F)(F)F)[nH]4)c3)ccc21 [CHIR265] (first compound 0.02 µM, partner dose 0.08 µM) | 79 | 176 | 225 | 293 | 316 | 238 | 121 | 417 | 933 | 194 | 159 | 148 | 123 | 51.7 |
| CCCCCCCCCCCCCCCCCCOP(=O)([O-])OC1CC[N+](C)(C)CC1 [Perifosine] + CS(=O)(=O)c1ccc(C(=O)Nc2ccc(Cl)c(-c3ccccn3)c2)c(Cl)c1 [vismodegib] (first compound 0.4 µM, partner dose 1 µM) | 47.8 | 31.4 | 102 | 114 | 303 | 43.3 | 88.1 | 66.6 | 138 | 47.7 | 97.7 | 65.3 | 99.5 | 91.8 |
| O=C(/C=C/c1cccnc1)NCCCCC1CCN(C(=O)c2ccccc2)CC1 + C[C@]1(c2nc3c(C(N)=O)cccc3[nH]2)CCCN1 [Veliparib] (first compound 0.01 µM, partner dose 1.4 µM) | 441 | 49.1 | 71 | 390 | 85.4 | 937 | 186 | 203 | 67.3 | 157 | 93.4 | 84.1 | 94.1 | 40.4 |
| O=C(Nc1cc(C(F)(F)F)cc(C(F)(F)F)c1)c1cc(Cl)ccc1O + C=CCNC1=C2C[C@@H](C)C[C@H](OC)[C@H](O)[C@@H](C)/C=C(\C)[C@H](OC(N)=O)[C@@H](OC)/C=C\C=C(/C)C(=O)NC(=CC1=O)C2=O [Tanespimycin] (first compound 0.016 µM, partner dose 0.002 µM) | 84.7 | 118 | 139 | 98.6 | 71.6 | 117 | 65.9 | 76.7 | 86.4 | 107 | 115 | 42.5 | 97.4 | 142 |
| Cc1cn(-c2cc(NC(=O)c3ccc(C)c(Nc4nccc(-c5cccnc5)n4)c3)cc(C(F)(F)F)c2)cn1 [nilotinib] + C=CCNC1=C2C[C@@H](C)C[C@H](OC)[C@H](O)[C@@H](C)/C=C(\C)[C@H](OC(N)=O)[C@@H](OC)/C=C\C=C(/C)C(=O)NC(=CC1=O)C2=O [Tanespimycin] (first compound 0.2 µM, partner dose 0.002 µM) | 143 | 91.7 | 344 | 59.6 | 74.1 | 143 | 79 | 51.8 | 161 | 35.6 | 108 | 34.6 | 98.4 | 71.3 |
| CC[C@]1(O)C[C@H]2CN(CCc3c([nH]c4ccccc34)[C@@](C(=O)OC)(c3cc4c(cc3OC)N(C=O)[C@H]3[C@@](O)(C(=O)OC)[C@H](OC(C)=O)[C@]5(CC)C=CCN6CC[C@]43[C@@H]65)C2)C1 [vincristine] + CCCCCCCCc1ccc(CCC(N)(CO)CO)cc1 [fingolimod] (first compound 0.0001 µM, partner dose 2 µM) | 60.5 | 79.6 | 314 | 183 | 240 | 75.9 | 246 | 162 | 1010 | 396 | 144 | 74.9 | 204 | 67.9 |
| COc1cc([C@@H]2c3cc4c(cc3[C@@H](O[C@@H]3O[C@@H]5CO[C@@H](C)O[C@H]5[C@H](O)[C@H]3O)[C@H]3COC(=O)[C@H]23)OCO4)cc(OC)c1O [etoposide] + Cn1c(=O)n(-c2ccc(C(C)(C)C#N)cc2)c2c3cc(-c4cnc5ccccc5c4)ccc3ncc21 [NVP-BEZ235] (first compound 0.02 µM, partner dose 0.004 µM) | 152 | 130 | 240 | 76.5 | 82.5 | 112 | 67.4 | 130 | 106 | 16.6 | 102 | 43.6 | 115 | 40.5 |
| COc1cc([C@@H]2c3cc4c(cc3[C@@H](O[C@@H]3O[C@@H]5CO[C@@H](C)O[C@H]5[C@H](O)[C@H]3O)[C@H]3COC(=O)[C@H]23)OCO4)cc(OC)c1O [etoposide] + C=C(c1ccc(C(=O)O)cc1)c1cc2c(cc1C)C(C)(C)CCC2(C)C [Bexarotene] (first compound 0.02 µM, partner dose 2 µM) | 87.4 | 74.2 | 54.5 | 167 | 111 | 125 | 175 | 76.7 | 61.1 | 47.5 | 100 | 94.2 | 102 | 92.8 |
| N#CC[C@H](C1CCCC1)n1cc(-c2ncnc3[nH]ccc23)cn1 [ruxolitinib] + C[C@@H](Oc1cc(-c2cnn(C3CCNCC3)c2)cnc1N)c1c(Cl)ccc(F)c1Cl [Crizotinib] (first compound 1 µM, partner dose 0.2 µM) | 95 | 58.7 | 38.5 | 111 | 64.5 | 158 | 30 | 52.4 | 41.1 | 84.1 | 86.2 | 235 | 82.2 | 64.6 |
| O=C(Nc1cc(C(F)(F)F)cc(C(F)(F)F)c1)c1cc(Cl)ccc1O + C[C@]1(O)C[C@@H](c2nc(-c3ccc4ccc(-c5ccccc5)nc4c3)c3c(N)nccn32)C1 [OSI906] (first compound 0.016 µM, partner dose 0.4 µM) | 107 | 105 | 40 | 41.8 | 298 | 80.5 | 97.7 | 406 | 102 | 136 | 121 | 78.5 | 91.9 | 264 |

4 consecutive records from above:

| Structure (SMILES) | cleaved PARP positive nuclei fraction [1] [%] | cleaved PARP positive nuclei fraction [2] [%] | cleaved PARP positive nuclei fraction [3] [%] | cleaved PARP positive nuclei fraction [4] [%] | cleaved PARP positive nuclei fraction [5] [%] | cleaved PARP positive nuclei fraction [6] [%] | cleaved PARP positive nuclei fraction [7] [%] | cleaved PARP positive nuclei fraction [8] [%] | cleaved PARP positive nuclei fraction [9] [%] | cleaved PARP positive nuclei fraction [10] [%] | cleaved PARP positive nuclei fraction [11] [%] | cleaved PARP positive nuclei fraction [12] [%] | cleaved PARP positive nuclei fraction [13] [%] | cleaved PARP positive nuclei fraction [14] [%] |
| --- | --- | --- | --- | --- | --- | --- | --- | --- | --- | --- | --- | --- | --- | --- |
| CCCCCCCCCCCCCCCCCCOP(=O)([O-])OC1CC[N+](C)(C)CC1 [Perifosine] + CS(=O)(=O)c1ccc(C(=O)Nc2ccc(Cl)c(-c3ccccn3)c2)c(Cl)c1 [vismodegib] (first compound 0.4 µM, partner dose 1 µM) | 47.8 | 31.4 | 102 | 114 | 303 | 43.3 | 88.1 | 66.6 | 138 | 47.7 | 97.7 | 65.3 | 99.5 | 91.8 |
| O=C(/C=C/c1cccnc1)NCCCCC1CCN(C(=O)c2ccccc2)CC1 + C[C@]1(c2nc3c(C(N)=O)cccc3[nH]2)CCCN1 [Veliparib] (first compound 0.01 µM, partner dose 1.4 µM) | 441 | 49.1 | 71 | 390 | 85.4 | 937 | 186 | 203 | 67.3 | 157 | 93.4 | 84.1 | 94.1 | 40.4 |
| O=C(Nc1cc(C(F)(F)F)cc(C(F)(F)F)c1)c1cc(Cl)ccc1O + C=CCNC1=C2C[C@@H](C)C[C@H](OC)[C@H](O)[C@@H](C)/C=C(\C)[C@H](OC(N)=O)[C@@H](OC)/C=C\C=C(/C)C(=O)NC(=CC1=O)C2=O [Tanespimycin] (first compound 0.016 µM, partner dose 0.002 µM) | 84.7 | 118 | 139 | 98.6 | 71.6 | 117 | 65.9 | 76.7 | 86.4 | 107 | 115 | 42.5 | 97.4 | 142 |
| Cc1cn(-c2cc(NC(=O)c3ccc(C)c(Nc4nccc(-c5cccnc5)n4)c3)cc(C(F)(F)F)c2)cn1 [nilotinib] + C=CCNC1=C2C[C@@H](C)C[C@H](OC)[C@H](O)[C@@H](C)/C=C(\C)[C@H](OC(N)=O)[C@@H](OC)/C=C\C=C(/C)C(=O)NC(=CC1=O)C2=O [Tanespimycin] (first compound 0.2 µM, partner dose 0.002 µM) | 143 | 91.7 | 344 | 59.6 | 74.1 | 143 | 79 | 51.8 | 161 | 35.6 | 108 | 34.6 | 98.4 | 71.3 |
